Assay results reported in the supplement of paper PMC8728848.
The list shows a part of the results.

Assays:
Assay in all cases: glycan array binding signal (z-score within array); higher = stronger binding
Conditions in all cases: glycan notation: IUPAC condensed, linker removed
GlcNAc(b1-3)Man = molecular target: GlcNAc(b1-3)Man
Outline: (§1)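 From the Consortium for Functional Glycomics database, 3228 arrays were curated, keeping only those whose protein sequence was available. Binding is given as a within-array Z-score averaged across arrays sharing a protein sequence and across linkers. Negative Z-scores can be read as non-binding.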

[1] = molecular target: GlcNAc(b1-3)[GlcNAc(b1-4)][GlcNAc(b1-6)]GlcNAc
Outline: as §1

[2] = molecular target: GlcNAc(b1-3)[GlcNAc(b1-6)]Gal(b1-4)GlcNAc
Outline: as §1

[3] = molecular target: GlcNAc(b1-3)[GlcNAc(b1-6)]GalNAc
Outline: as §1

[4] = molecular target: GlcNAc(b1-4)Gal(b1-4)GlcNAc
Outline: as §1

GlcNAc(b1-4)GlcNAc = molecular target: GlcNAc(b1-4)GlcNAc
Outline: as §1

[5] = molecular target: GlcNAc(b1-4)GlcNAc(b1-4)GlcNAc
Outline: as §1

[6] = molecular target: GlcNAc(b1-4)GlcNAc(b1-4)GlcNAc(b1-4)GlcNAc(b1-4)GlcNAc
Outline: as §1

[7] = molecular target: GlcNAc(b1-4)GlcNAc(b1-4)GlcNAc(b1-4)GlcNAc(b1-4)GlcNAc(b1-4)GlcNAc
Outline: as §1

[8] = molecular target: GlcNAc(b1-4)[GlcNAc(b1-6)]GalNAc
Outline: as §1

[9] = molecular target: GlcNAc(b1-6)Gal(b1-4)GlcNAc
Outline: as §1

GlcNAc(b1-6)GalNAc = molecular target: GlcNAc(b1-6)GalNAc
Outline: as §1

[10] = molecular target: GlcNAc6S(b1-3)Gal(b1-4)GlcNAc
Outline: as §1

Kdn(a2-3)Gal(b1-3)GalNAc = molecular target: Kdn(a2-3)Gal(b1-3)GalNAc
Outline: as §1

Kdn(a2-3)Gal(b1-3)GlcNAc = molecular target: Kdn(a2-3)Gal(b1-3)GlcNAc
Outline: as §1

Kdn(a2-3)Gal(b1-4)Glc = molecular target: Kdn(a2-3)Gal(b1-4)Glc
Outline: as §1

Kdn(a2-3)Gal(b1-4)GlcNAc = molecular target: Kdn(a2-3)Gal(b1-4)GlcNAc
Outline: as §1

[11] = molecular target: Kdn(a2-3)Gal(b1-4)[Fuc(a1-3)]GlcNAc
Outline: as §1

Kdn(a2-6)Gal(b1-4)GlcNAc = molecular target: Kdn(a2-6)Gal(b1-4)GlcNAc
Outline: as §1

[12] = molecular target: Man(a1-2)Man(a1-2)Man(a1-3)Man
Outline: as §1

[13] = molecular target: Man(a1-2)Man(a1-2)Man(a1-6)[Man(a1-3)]Man
Outline: as §1

Man(a1-2)Man(a1-3)Man = molecular target: Man(a1-2)Man(a1-3)Man
Outline: as §1

[14] = molecular target: Man(a1-2)Man(a1-3)[Man(a1-2)Man(a1-6)]Man
Outline: as §1

[15] = molecular target: Man(a1-2)Man(a1-3)[Man(a1-2)Man(a1-6)]Man(a1-6)[Man(a1-2)Man(a1-2)Man(a1-3)]Man
Outline: as §1

[16] = molecular target: Man(a1-2)Man(a1-3)[Man(a1-2)Man(a1-6)]Man(a1-6)[Man(a1-2)Man(a1-2)Man(a1-3)]Man(b1-4)GlcNAc(b1-4)GlcNAc
Outline: as §1

[17] = molecular target: Man(a1-2)Man(a1-3)[Man(a1-6)]Man(a1-6)[Man(a1-2)Man(a1-3)]Man(b1-4)GlcNAc(b1-4)GlcNAc
Outline: as §1

[18] = molecular target: Man(a1-2)Man(a1-6)[Man(a1-3)]Man(a1-6)[Man(a1-2)Man(a1-2)Man(a1-3)]Man
Outline: as §1

[19] = molecular target: Man(a1-2)Man(a1-6)[Man(a1-3)]Man(a1-6)[Man(a1-2)Man(a1-2)Man(a1-3)]Man(b1-4)GlcNAc(b1-4)GlcNAc
Outline: as §1

Man(a1-3)[Man(a1-6)]Man = molecular target: Man(a1-3)[Man(a1-6)]Man
Outline: as §1

[20] = molecular target: Man(a1-3)[Man(a1-6)]Man(a1-6)[Man(a1-2)Man(a1-3)]Man(b1-4)GlcNAc(b1-4)GlcNAc
Outline: as §1

[21] = molecular target: Man(a1-3)[Man(a1-6)]Man(a1-6)[Man(a1-3)]Man
Outline: as §1

[22] = molecular target: Man(a1-3)[Man(a1-6)]Man(a1-6)[Man(a1-3)]Man(b1-4)GlcNAc(b1-4)GlcNAc
Outline: as §1

[23] = molecular target: Man(a1-3)[Man(a1-6)]Man(b1-4)GlcNAc(b1-4)GlcNAc
Outline: as §1

[24] = molecular target: Man(a1-3)[Man(a1-6)]Man(b1-4)GlcNAc(b1-4)[Fuc(a1-6)]GlcNAc
Outline: as §1

Man(a1-6)Man = molecular target: Man(a1-6)Man
Outline: as §1

Man(b1-4)GlcNAc = molecular target: Man(b1-4)GlcNAc
Outline: as §1

MurNAc(b1-4)GlcNAc = molecular target: MurNAc(b1-4)GlcNAc
Outline: as §1

Neu5Ac(a2-3)Gal = molecular target: Neu5Ac(a2-3)Gal
Outline: as §1

B1: PX9937I-bfa-538-26-538 (Bacteroides fragilis) (protein)
chain: DKLDLSPIDYYGSGSYWKTEAQATAYIDGIHKHLRDAAWQHTITFGELRGGRFITGASSDGMGVSNGDIILQNFDETHTGVSKFGDLFGRITNLNLFIARVTDATYLSDEMKNFYLGEVYGLRAFYYFDLYRIYGGVPLRLTADVVEGVIDPNKLYMARSTPKEVMTQIKSDLNKSMEYFGNMNDFDPYKRGKKVYWSKAATECLMGEVYLWTSKVTTGDDVANPADLTIAKTHLESVLNNYNLKMLDDFSQVFNAKNKANDEIIFAIRFLEGEATNSNGTFTYNVGTGSTKNRYQANGEVFGDALDIQNTGNQTYEYNKAVYQNFDDADTRKEATFIASYNKDGKTGELSLYGTHVRKNIGYVNAQGARVYCGDYIFYRLPWVYLTLAEIANMEGDNAAVAKYINLVRKRAYGNAWDETLYAYPETADFTTNELAILHEKDKEFIQEGQRWWDLRRMTLTKGGTPLVFCKEGSLLGDAPILNKSTEAHKLLWPIEKTMLNKDPALEQTPGYK
- glycan array binding signal (z-score) (GlcNAc(b1-3)Man): -0.839
- glycan array binding signal (z-score) [1]: 0.163
- glycan array binding signal (z-score) [2]: -0.19
- glycan array binding signal (z-score) [3]: 0.042
- glycan array binding signal (z-score) [4]: 1.65
- glycan array binding signal (z-score) (GlcNAc(b1-4)GlcNAc): -0.376
- glycan array binding signal (z-score) [5]: -1.02
- glycan array binding signal (z-score) [6]: 1.25
- glycan array binding signal (z-score) [7]: -0.198
- glycan array binding signal (z-score) [8]: -0.626
- glycan array binding signal (z-score) [9]: -0.683
- glycan array binding signal (z-score) (GlcNAc(b1-6)GalNAc): 0.252
- glycan array binding signal (z-score) [10]: -0.071
- glycan array binding signal (z-score) (Kdn(a2-3)Gal(b1-3)GalNAc): 0.601
- glycan array binding signal (z-score) (Kdn(a2-3)Gal(b1-3)GlcNAc): 0.185
- glycan array binding signal (z-score) (Kdn(a2-3)Gal(b1-4)Glc): -0.098
- glycan array binding signal (z-score) (Kdn(a2-3)Gal(b1-4)GlcNAc): -0.847
- glycan array binding signal (z-score) [11]: -0.984
- glycan array binding signal (z-score) (Kdn(a2-6)Gal(b1-4)GlcNAc): -0.612
- glycan array binding signal (z-score) [12]: 0.241
- glycan array binding signal (z-score) [13]: -1.28
- glycan array binding signal (z-score) (Man(a1-2)Man(a1-3)Man): -0.285
- glycan array binding signal (z-score) [14]: -0.189
- glycan array binding signal (z-score) [15]: 0.681
- glycan array binding signal (z-score) [16]: -0.508
- glycan array binding signal (z-score) [17]: -0.422
- glycan array binding signal (z-score) [18]: -0.643
- glycan array binding signal (z-score) [19]: -0.434
- glycan array binding signal (z-score) (Man(a1-3)[Man(a1-6)]Man): 0.95
- glycan array binding signal (z-score) [20]: 0.262
- glycan array binding signal (z-score) [21]: 1.93
- glycan array binding signal (z-score) [22]: -0.112
- glycan array binding signal (z-score) [23]: -0.238
- glycan array binding signal (z-score) [24]: 0.485
- glycan array binding signal (z-score) (Man(a1-6)Man): -0.362
- glycan array binding signal (z-score) (Man(b1-4)GlcNAc): 2.04
- glycan array binding signal (z-score) (MurNAc(b1-4)GlcNAc): -0.733
- glycan array binding signal (z-score) (Neu5Ac(a2-3)Gal): 0.196
